Results are given in words; binding and its absence hold for the method and conditions named. Some binding calls cover weakened binding; strength is not graded here.
Target: PRDX1 (Peroxiredoxin 1), endogenous in HCT116 cells (human (endogenous in HCT116)) (UniProt Q06830)
Test: non-reducing PAGE and Western blot; HCT116 cells treated with different doses of CoA for 2 h; lysed in non-denaturing lysis buffer, boiled in non-reducing loading buffer, blotted for PRDX1 dimer and oligomer (Fig. 5I)

binding: binds
B1: PRDX1 (Peroxiredoxin 1), endogenous in HCT116 cells (protein, UniProt Q06830 1-199)
chain: MSSGNAKIGHPAPNFKATAVMPDGQFKDISLSDYKGKYVVFFFYPLDFTFVCPTEIIAFSDRAEEFKKLNCQVIGASVDSHFCHLAWVNTPKKQGGLGPMNIPLVSDPKRTIAQDYGVLKADEGISFRGLFIIDDKGILRQITVNDLPVGRSVDETLRLVQAFQFTDKHGEVCPAGWKPGSDTIKPDVQKSKEYFSKQK
